PubChem BioAssay AID1259308 | NCATS, 2017

Assay: 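Candidate targets for better recombinant protein yield in mammalian cells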 (primary screen)
Cells: human HEK293 embryonic kidney cells stably expressing firefly luciferase (HEK-CMV-Luc2-Hygro)
Knock-down reagent: single siRNA against human genes, 0.8 pmol siRNA per well
Duration: 72 h
Read-out: 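Reporter luminescence and viable-cell signal on separate replicate plates, given as percent of non-targeting control and median/MAD z-scores, plus per-cell luciferase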
Scale: total luciferase, z-score and total luciferase, % of control: higher = more reporter protein produced
Hit rule: 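An siRNA counts as active if its total luciferase robust z-score exceeds 3; genes with two or more such siRNAs out of three were retested with fresh siRNAs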
Meaning of the calls: active = raised luciferase; inactive = no rise
The deposit covers about 59,000 reagents; shown is an unselected part. About 1,510 of them (2.6%) count as active. 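Calls use total luciferase alone and ignore viability, so some active siRNAs may act by altering cell number.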 The numbers tell different reagents against one gene apart. Further read-outs or replicates are left out here.

NACA2 #1: total luciferase, z-score = 0.65; total luciferase, % of control = 94.8; outcome = inactive
NACA2 #2: total luciferase, z-score = 4.1; total luciferase, % of control = 164; outcome = active
NACA2 #3: total luciferase, z-score = 0.674; total luciferase, % of control = 95.3; outcome = inactive
SLC7A10 #1: total luciferase, z-score = -2.06; total luciferase, % of control = 40.9; outcome = inactive
SLC7A10 #2: total luciferase, z-score = -0.373; total luciferase, % of control = 74.5; outcome = inactive
SLC7A10 #3: total luciferase, z-score = -0.494; total luciferase, % of control = 72.1; outcome = inactive
MUC13 #1: total luciferase, z-score = -1.86; total luciferase, % of control = 44.9; outcome = inactive
MUC13 #2: total luciferase, z-score = -1.06; total luciferase, % of control = 60.7; outcome = inactive
MUC13 #3: total luciferase, z-score = 0.333; total luciferase, % of control = 88.5; outcome = inactive
HPS4 #1: total luciferase, z-score = 1.46; total luciferase, % of control = 111; outcome = inactive
HPS4 #2: total luciferase, z-score = 1.09; total luciferase, % of control = 104; outcome = inactive
HPS4 #3: total luciferase, z-score = -0.178; total luciferase, % of control = 78.4; outcome = inactive
AQP11 #1: total luciferase, z-score = -1.92; total luciferase, % of control = 43.7; outcome = inactive
AQP11 #2: total luciferase, z-score = -1.47; total luciferase, % of control = 52.7; outcome = inactive
AQP11 #3: total luciferase, z-score = -1.72; total luciferase, % of control = 47.7; outcome = inactive
ASB8 #1: total luciferase, z-score = -0.589; total luciferase, % of control = 70.2; outcome = inactive
ASB8 #2: total luciferase, z-score = 1.62; total luciferase, % of control = 114; outcome = inactive
ASB8 #3: total luciferase, z-score = -0.79; total luciferase, % of control = 66.2; outcome = inactive
FOXB1 #1: total luciferase, z-score = 0.347; total luciferase, % of control = 88.8; outcome = inactive
FOXB1 #2: total luciferase, z-score = -2.01; total luciferase, % of control = 42; outcome = inactive
FOXB1 #3: total luciferase, z-score = 2.53; total luciferase, % of control = 132; outcome = inactive

Ordered by “total luciferase, % of control” (highest first): 2 of the entries above.
HPS4 #3: total luciferase, z-score = -0.178; total luciferase, % of control = 78.4; outcome = inactive
AQP11 #1: total luciferase, z-score = -1.92; total luciferase, % of control = 43.7; outcome = inactive
